For the test, the target named is T1, Shigella flexneri SctT (Spa29) (Shigella flexneri) (UniProt P0A1M6).
T1 sequence: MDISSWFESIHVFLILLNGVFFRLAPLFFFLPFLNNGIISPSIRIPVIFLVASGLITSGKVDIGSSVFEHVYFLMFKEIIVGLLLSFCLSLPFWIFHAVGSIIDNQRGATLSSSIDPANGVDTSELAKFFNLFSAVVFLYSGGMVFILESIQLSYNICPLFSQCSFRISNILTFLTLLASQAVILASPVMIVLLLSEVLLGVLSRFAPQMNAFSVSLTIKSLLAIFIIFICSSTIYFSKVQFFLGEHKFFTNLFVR
In words: cryo-EM structure; SctRST co-expressed from the operon in E. coli, complex purified by the Dual-Strep tag on SctT and SEC; 0.01% LMNG in TBS (100 mM Tris, 150 mM NaCl, 1 mM EDTA, pH 8), 8.4 mg/ml; single-particle reconstruction at 3.5 Å, with further 3D classification of the particle set; both purified.

By UniProt entry, the sequences of proteins in these tests, tags left out.
UniProt P0A1L3: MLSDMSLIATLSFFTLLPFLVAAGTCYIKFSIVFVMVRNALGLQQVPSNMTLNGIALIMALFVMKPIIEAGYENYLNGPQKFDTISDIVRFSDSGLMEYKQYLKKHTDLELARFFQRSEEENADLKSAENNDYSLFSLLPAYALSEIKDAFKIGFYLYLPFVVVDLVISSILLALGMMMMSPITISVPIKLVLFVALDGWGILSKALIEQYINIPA
UniProt P0A1M4: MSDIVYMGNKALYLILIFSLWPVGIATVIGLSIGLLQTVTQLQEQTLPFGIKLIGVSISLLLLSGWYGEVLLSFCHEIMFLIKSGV

No constants are given. Whether binding was seen depends on the method and setting. Some entries that bind do so weakly or less than the wild type.

Consider “Shigella flexneri SctR (Spa24) (from UniProt P0A1L3 1-216)”, for which the binding result is recorded as “binds”.

Turning to “Shigella flexneri SctS (Spa9) (from UniProt P0A1M4 1-86)”, the binding result is recorded as “binds”.

The values are drawn from publication PMC6593402, “The Structure of an Injectisome Export Gate Demonstrates Conservation of Architecture in the Core Export Gate between Flagellar and Virulence Type III Secretion Systems” (mBio, 2019).
